Experiment: general procedure: peptide synthesis; DCC/HOBt; active esters with NMM in DMF
Conditions: conjugation step; for final HPLC purity: RP-HPLC

For “B1-((N-acetyl-L-thyroxyl)-(12-aminolauryl))-insulin (Human)”, the conjugation yield was 21% of theory and the “final HPLC purity” value was 98.2%.

In the case of “B1-L-thyroxyl-(12-aminolauryl)-insulin (Human)”, the conjugation yield is reported as 27.3% of theory and the “final HPLC purity” value is reported as 97.6%.

In the case of “B1-[D-thyroxyl-(12-aminolauryl)]-insulin (Human)”, the conjugation yield is reported as 25% of theory and the “final HPLC purity” value is reported as 98%.
